The values below come from paper PMC6753376.

Amino acid sequences for entries named in this document (tags omitted).
UniProt P61201: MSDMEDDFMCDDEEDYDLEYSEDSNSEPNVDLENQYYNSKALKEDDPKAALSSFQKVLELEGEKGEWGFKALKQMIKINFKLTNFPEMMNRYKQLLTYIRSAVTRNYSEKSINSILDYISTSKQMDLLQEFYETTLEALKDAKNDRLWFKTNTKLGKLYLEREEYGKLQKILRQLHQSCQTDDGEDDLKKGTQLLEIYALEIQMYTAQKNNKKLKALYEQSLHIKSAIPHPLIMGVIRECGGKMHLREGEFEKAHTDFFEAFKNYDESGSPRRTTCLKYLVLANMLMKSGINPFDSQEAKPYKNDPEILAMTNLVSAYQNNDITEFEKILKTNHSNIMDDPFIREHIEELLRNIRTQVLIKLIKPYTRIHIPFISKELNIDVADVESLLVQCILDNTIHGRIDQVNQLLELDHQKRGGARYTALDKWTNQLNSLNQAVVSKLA
UniProt P08579: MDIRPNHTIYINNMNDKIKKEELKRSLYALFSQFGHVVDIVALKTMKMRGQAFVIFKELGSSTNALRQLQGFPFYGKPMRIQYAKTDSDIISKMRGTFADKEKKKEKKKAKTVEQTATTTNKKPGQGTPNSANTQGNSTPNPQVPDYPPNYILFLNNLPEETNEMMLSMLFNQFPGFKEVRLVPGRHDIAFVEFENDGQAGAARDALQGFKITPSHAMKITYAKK
UniProt Q15003: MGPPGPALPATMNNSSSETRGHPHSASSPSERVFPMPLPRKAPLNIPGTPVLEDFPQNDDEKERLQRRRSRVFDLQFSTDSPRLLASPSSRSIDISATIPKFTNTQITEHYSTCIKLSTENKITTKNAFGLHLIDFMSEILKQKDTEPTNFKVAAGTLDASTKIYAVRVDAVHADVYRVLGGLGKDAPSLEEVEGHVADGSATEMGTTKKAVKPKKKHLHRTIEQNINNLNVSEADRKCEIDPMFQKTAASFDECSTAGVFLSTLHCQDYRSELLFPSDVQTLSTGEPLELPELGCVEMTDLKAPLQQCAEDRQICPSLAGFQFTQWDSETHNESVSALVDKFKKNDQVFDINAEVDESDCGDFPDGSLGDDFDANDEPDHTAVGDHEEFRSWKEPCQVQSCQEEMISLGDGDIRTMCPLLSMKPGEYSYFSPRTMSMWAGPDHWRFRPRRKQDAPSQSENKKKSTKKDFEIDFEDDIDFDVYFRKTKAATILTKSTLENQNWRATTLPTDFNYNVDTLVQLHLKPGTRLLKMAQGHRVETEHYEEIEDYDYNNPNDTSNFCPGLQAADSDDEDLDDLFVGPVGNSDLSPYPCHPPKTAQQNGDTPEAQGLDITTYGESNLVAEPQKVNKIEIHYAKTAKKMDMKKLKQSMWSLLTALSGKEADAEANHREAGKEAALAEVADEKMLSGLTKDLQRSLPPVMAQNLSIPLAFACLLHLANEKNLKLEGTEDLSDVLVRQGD
UniProt Q06323: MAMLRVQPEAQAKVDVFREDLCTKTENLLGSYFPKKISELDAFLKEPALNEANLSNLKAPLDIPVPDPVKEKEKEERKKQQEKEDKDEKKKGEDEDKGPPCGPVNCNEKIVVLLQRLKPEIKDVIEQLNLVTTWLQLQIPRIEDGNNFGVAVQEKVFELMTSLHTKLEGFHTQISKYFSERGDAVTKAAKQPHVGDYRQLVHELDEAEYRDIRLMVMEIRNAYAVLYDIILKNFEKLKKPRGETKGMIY
UniProt P46940: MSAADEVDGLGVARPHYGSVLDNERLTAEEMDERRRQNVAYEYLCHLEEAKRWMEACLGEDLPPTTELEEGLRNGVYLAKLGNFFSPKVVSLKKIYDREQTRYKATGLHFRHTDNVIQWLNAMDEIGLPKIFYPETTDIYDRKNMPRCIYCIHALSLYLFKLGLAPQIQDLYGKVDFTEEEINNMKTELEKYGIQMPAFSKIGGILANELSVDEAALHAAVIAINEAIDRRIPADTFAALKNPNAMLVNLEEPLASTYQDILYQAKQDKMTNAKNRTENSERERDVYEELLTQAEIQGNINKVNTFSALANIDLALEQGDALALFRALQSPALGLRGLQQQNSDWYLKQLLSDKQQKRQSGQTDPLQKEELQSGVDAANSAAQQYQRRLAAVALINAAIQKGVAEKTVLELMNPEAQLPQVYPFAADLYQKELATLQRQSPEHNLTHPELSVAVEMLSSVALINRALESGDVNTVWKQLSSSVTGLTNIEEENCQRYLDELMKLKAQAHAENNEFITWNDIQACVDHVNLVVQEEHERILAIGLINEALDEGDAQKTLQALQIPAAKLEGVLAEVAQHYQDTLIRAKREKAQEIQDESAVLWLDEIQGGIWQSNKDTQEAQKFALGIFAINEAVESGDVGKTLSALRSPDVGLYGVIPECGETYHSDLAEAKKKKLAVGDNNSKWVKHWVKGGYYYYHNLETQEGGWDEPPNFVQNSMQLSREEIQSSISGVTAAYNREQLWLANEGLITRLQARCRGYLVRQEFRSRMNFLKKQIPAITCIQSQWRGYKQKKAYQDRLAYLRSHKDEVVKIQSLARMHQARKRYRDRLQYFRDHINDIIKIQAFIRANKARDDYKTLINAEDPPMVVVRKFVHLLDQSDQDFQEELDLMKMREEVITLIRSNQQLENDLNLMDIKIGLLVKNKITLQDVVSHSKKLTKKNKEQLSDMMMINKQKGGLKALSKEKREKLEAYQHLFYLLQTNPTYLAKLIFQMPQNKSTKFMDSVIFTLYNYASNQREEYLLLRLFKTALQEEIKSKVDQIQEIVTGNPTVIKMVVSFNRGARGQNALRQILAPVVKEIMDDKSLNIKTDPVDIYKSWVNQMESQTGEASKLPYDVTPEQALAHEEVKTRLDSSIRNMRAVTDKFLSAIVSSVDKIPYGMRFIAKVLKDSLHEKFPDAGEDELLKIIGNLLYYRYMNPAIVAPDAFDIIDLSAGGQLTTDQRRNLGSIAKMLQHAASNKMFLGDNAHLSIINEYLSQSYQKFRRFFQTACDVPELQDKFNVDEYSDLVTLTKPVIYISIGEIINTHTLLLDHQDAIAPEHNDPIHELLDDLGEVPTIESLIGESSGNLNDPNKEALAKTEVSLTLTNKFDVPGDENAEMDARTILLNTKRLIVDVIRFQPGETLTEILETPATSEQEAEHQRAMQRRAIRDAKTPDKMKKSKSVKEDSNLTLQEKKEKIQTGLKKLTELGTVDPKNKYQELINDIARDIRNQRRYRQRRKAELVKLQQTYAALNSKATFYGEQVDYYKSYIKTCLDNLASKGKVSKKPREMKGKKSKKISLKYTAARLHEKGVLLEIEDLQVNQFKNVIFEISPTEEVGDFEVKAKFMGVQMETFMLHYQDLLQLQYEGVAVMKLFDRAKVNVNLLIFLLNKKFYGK
UniProt Q13098: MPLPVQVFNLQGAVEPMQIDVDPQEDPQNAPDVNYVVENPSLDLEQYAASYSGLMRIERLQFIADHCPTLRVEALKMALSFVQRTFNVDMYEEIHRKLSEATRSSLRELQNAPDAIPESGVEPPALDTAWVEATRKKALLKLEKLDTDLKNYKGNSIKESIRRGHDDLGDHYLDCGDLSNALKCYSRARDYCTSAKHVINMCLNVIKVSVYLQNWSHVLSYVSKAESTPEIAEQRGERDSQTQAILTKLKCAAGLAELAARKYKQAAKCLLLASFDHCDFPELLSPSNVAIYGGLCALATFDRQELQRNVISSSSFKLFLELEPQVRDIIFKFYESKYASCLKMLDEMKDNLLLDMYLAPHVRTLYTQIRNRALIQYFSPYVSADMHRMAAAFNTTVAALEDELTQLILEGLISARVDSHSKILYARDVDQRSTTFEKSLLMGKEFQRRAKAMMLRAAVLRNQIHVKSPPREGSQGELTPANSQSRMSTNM
UniProt P62318: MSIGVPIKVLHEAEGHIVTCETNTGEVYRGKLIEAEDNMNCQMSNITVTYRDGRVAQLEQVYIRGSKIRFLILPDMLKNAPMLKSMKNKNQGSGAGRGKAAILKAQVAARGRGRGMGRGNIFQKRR
UniProt Q92769: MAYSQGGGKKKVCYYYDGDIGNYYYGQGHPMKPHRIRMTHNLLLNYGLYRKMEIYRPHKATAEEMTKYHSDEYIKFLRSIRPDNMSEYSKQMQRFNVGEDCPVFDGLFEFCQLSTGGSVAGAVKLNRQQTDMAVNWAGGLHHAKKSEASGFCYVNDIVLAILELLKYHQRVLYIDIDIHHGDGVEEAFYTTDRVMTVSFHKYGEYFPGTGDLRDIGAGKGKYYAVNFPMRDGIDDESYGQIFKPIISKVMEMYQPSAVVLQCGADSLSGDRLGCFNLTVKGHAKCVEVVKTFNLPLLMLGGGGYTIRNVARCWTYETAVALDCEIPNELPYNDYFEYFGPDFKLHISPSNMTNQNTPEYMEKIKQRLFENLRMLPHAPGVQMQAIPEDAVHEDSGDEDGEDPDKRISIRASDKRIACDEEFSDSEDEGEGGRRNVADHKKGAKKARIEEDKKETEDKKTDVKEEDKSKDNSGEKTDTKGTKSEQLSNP
UniProt Q9UL46: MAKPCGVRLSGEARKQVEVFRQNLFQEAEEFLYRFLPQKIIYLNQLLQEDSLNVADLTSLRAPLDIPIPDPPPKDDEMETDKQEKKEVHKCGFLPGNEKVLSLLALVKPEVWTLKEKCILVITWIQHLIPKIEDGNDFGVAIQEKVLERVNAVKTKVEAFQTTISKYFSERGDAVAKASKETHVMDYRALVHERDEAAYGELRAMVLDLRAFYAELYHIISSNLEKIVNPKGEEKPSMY
UniProt Q9BRP4: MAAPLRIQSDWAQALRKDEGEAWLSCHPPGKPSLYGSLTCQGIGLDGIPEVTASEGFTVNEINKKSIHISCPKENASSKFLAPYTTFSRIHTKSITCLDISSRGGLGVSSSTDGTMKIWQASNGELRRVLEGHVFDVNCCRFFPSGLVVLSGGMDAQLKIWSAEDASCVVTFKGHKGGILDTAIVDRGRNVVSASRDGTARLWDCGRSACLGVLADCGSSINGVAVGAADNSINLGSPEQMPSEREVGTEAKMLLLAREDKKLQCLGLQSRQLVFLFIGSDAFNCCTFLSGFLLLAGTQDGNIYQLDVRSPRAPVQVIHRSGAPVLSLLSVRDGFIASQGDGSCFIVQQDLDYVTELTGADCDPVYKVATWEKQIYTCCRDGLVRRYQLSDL

Holding throughout (assay): cross-linking; BS3 crosslinking of high-molecular weight SEC fractions of K562 cytosol (< 1 mg/ml protein, 2:1 w/w BS3 to protein); trypsin and sequential digestion, peptide SEC, LC-MS/MS, xiSEARCH + xiFDR, 5% residue-pair FDR
Test [1] concerns the target COPS2 (human (endogenous in K562)) (UniProt P61201).
Test [2] concerns the target SNRPB2 (human (endogenous in K562)) (UniProt P08579).
The target in test [3] is NCAPH (human (endogenous in K562)) (UniProt Q15003).
The target in test [4] is PSME1 (human (endogenous in K562)) (UniProt Q06323).
Test [5] addresses IQGAP1 (human (endogenous in K562)) (UniProt P46940).

These are yes or no findings as the source states them, for the method shown. In cells and extracts the contact can be indirect. Some results given as binding are weak or reduced against the parent protein; the word gives no strength.

For the substance GPS1 (from UniProt Q13098 1-491), the binding result in test [1] is on record as “binds”.

Take SNRPD3 (from UniProt P62318 1-126): the binding entry in test [2] is “binds”. Regarding HDAC2 (from UniProt Q92769 1-488), the binding result in test [3] is “binds”.

Turning to PSME2 (from UniProt Q9UL46 1-239), the binding result in test [4] is “binds”. For PAAF1 (from UniProt Q9BRP4 1-392), the binding entry in test [5] is listed as “binds”.
